Results from paper PMC6053369.
These are yes or no findings as the source states them, for the method shown. In cells and extracts the contact can be indirect. Some results given as binding are weak or reduced against the parent protein; the word gives no strength. For some assays here: Sequences can lack the tags named with a protein. Each block holds one substance with its values, some of them ahead of it.

The chains behind the UniProt entries cited, without tags or fusion partners. Where a name states a change or a piece, a line headed by the entry shows the natural chain unless it says otherwise. Residues count along the entry.
UniProt Q8BKJ9: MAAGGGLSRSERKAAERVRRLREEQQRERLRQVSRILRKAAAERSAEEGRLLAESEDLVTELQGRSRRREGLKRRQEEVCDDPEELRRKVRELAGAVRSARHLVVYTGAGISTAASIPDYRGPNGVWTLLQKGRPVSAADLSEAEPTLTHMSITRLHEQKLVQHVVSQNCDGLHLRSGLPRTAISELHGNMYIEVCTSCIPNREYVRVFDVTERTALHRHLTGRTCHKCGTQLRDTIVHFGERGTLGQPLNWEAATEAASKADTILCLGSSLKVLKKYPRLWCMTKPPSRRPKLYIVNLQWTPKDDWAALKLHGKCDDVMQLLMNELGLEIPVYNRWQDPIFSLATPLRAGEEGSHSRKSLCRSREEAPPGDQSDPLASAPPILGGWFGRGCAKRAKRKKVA
Halo-SIRT7 (M2)-FLAG: residues 91-210 of Q8BKJ9
UniProt Q8VI67: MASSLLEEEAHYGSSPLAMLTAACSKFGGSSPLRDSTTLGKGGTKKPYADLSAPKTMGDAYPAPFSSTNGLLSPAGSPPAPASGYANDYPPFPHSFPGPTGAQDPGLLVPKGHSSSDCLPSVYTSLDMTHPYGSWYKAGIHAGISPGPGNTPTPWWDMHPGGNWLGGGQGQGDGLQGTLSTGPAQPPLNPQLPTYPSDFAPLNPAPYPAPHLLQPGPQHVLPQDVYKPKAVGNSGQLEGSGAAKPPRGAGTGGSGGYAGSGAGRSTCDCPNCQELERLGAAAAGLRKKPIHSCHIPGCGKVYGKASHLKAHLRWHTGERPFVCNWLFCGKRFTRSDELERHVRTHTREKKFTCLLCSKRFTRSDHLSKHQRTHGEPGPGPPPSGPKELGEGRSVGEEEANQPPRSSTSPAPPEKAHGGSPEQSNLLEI

Legend:
[1] = target: T1, HA-SIRT1 (mouse) (UniProt Q923E4); assay: co-IP; HEK293T cells transfected for 24 h, lysed in IP buffer (20 mM Tris-HCl pH 7.4, 200 mM NaCl, 2.5 mM MgCl2, 0.05% NP-40); immunoprecipitation overnight at 4 C with anti-HA antibody beads; western blot
T1 sequence: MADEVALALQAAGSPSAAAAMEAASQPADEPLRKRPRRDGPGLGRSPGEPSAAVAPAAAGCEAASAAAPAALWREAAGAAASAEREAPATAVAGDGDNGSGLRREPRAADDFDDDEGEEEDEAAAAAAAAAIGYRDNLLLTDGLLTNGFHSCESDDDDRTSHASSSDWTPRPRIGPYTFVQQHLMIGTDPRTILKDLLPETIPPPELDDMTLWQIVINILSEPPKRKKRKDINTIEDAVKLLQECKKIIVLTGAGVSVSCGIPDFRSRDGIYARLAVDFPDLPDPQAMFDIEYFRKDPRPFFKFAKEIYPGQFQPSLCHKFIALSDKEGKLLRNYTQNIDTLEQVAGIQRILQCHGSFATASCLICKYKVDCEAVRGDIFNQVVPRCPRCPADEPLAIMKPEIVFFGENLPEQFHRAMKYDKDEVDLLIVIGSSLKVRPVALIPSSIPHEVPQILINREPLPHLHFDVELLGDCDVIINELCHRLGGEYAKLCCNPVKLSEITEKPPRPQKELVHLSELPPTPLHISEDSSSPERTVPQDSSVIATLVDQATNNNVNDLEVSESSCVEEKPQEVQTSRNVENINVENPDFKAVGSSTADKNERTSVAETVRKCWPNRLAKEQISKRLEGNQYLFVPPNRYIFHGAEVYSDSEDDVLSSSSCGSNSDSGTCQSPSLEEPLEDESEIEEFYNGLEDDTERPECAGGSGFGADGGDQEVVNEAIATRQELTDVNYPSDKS

[2] = target: Halo-SIRT7-FLAG (UniProt Q8BKJ9); assay: pull-down; HaloTag pull-down: Halo fusion proteins (30 ug) immobilised on HaloLink Resin, incubated with 500 ug lysate of transfected HEK293T cells in pull-down buffer (10 mM Tris-HCl pH 7.4, 150 mM NaCl, 1% NP-40, 10 mM NaF, 10 mM Na4P2O7), overnight at 4 C, five washes; western blot; only the target …
[3] = target: HA-SIRT7 (UniProt Q8BKJ9); assay: co-IP; HEK293T cells transfected for 24 h, lysed in IP buffer (20 mM Tris-HCl pH 7.4, 200 mM NaCl, 2.5 mM MgCl2, 0.05% NP-40); immunoprecipitation overnight at 4 C with anti-HA antibody beads; western blot
[4] = target: Halo-SIRT7 (M2)-FLAG (UniProt Q8BKJ9); assay: pull-down; HaloTag pull-down: Halo fusion proteins (30 ug) immobilised on HaloLink Resin, incubated with 500 ug lysate of transfected HEK293T cells in pull-down buffer (10 mM Tris-HCl pH 7.4, 150 mM NaCl, 1% NP-40, 10 mM NaF, 10 mM Na4P2O7), overnight at 4 C, five washes; western blot; only the target …
[5] = target: Halo-SIRT7-FLAG (UniProt Q8BKJ9); assay: pull-down; HaloTag pull-down: Halo-SIRT7 on HaloLink Resin with lysate of MC3T3-E1 cells treated with nicotinamide (NAM); endogenous OSX detected; only the target purified
[6] = target: Halo-SIRT7-FLAG (UniProt Q8BKJ9); assay: pull-down; HaloTag pull-down: Halo-SIRT7 on HaloLink Resin with lysate of MC3T3-E1 cells without NAM treatment; endogenous OSX detected; only the target purified
[7] = target: endogenous OSX (primary calvarial osteoblasts) (mouse (endogenous in primary calvarial osteoblasts)) (UniProt Q8VI67); assay: co-IP; endogenous proteins in primary calvarial osteoblasts differentiated for 6 days; IP buffer (20 mM Tris-HCl pH 7.4, 200 mM NaCl, 2.5 mM MgCl2, 0.05% NP-40); anti-OSX-conjugated magnetic beads, overnight at 4 C; western blot

binding [1]: binds
Substance: GAL4DBD-OSX (27-270) (from UniProt Q8VI67 27-270) (domain or fragment)

binding [2]: binds
Substance: GAL4DBD-OSX (293-428) (from UniProt Q8VI67 293-428) (domain or fragment)

binding [3]: binds
Substance: OSX (expressed in HEK293T cells for co-immunoprecipitation with HA-SIRT7) (from UniProt Q8VI67 1-428)

binding [4]: binds
binding [2]: binds
Substance: OSX-HA (from UniProt Q8VI67 1-428)

binding [5]: binds
binding [6]: binds weakly
Substance: endogenous OSX derived from MC3T3-E1 cells (from UniProt Q8VI67 1-428)

binding [7]: binds
Substance: endogenous SIRT7 (from UniProt Q8BKJ9 1-402) (enzyme)
